MtTrpRS: 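Tryptophan-tRNA ligase, Mycobacterium tuberculosis (UniProt P9WFT3). Enzyme assay of tryptophanyl-tRNA synthetase; the read-out is not stated. Tested at 10 µM. Higher most likely means stronger inhibition; the record gives no direction and few retests gave an IC50. About 65,000 compounds were tested under these conditions; 0.098% (about 64) showed 50% or more at least once.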
ClpP1P2: 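Protease assay of ClpP1P2, read by the AMC dye that it sets free. Target: ClpP1P2, Mycobacterium tuberculosis (UniProt P9WPC5 and UniProt P9WPC3). Concentration: 50 µM. Higher reads as stronger inhibition, judged from the few compounds that gave an IC50. Most other retested compounds had strongly negative values. Of about 69,000 compounds tested this way, about 10 (0.015%) reached 50% or more in at least one test.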
TcHisRS: 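Enzyme assay of histidyl-tRNA synthetase; the read-out is not stated. Target: Histidine-tRNA ligase, Trypanosoma cruzi CL Brener (UniProt Q4DA54). Tested at 30 µM. The record gives no direction; compounds that gave an IC50 in retests scored well above the rest, so higher reads as stronger inhibition. About 69,000 compounds were tested under these conditions; 0.045% (about 31) showed 50% or more at least once.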

Sequences of proteins named here, by UniProt entry; tags and fusion partners are left off. Residues count along the entry.
UniProt P9WFT3, whole entry: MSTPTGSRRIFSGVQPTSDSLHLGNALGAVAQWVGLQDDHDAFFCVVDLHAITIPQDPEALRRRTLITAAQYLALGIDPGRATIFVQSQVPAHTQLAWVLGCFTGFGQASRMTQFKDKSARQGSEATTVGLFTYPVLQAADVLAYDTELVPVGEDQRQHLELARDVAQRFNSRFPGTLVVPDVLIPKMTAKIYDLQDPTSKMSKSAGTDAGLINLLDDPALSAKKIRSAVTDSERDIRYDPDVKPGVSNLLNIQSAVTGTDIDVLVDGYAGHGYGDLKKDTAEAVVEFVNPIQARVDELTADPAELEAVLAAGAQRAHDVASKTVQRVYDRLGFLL
UniProt P9WPC5, whole entry: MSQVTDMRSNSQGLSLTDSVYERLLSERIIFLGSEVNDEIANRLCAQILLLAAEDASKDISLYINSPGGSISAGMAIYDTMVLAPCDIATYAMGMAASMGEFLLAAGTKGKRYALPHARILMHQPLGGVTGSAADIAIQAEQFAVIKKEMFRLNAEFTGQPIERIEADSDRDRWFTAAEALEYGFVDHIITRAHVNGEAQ
UniProt P9WPC3, whole entry partner: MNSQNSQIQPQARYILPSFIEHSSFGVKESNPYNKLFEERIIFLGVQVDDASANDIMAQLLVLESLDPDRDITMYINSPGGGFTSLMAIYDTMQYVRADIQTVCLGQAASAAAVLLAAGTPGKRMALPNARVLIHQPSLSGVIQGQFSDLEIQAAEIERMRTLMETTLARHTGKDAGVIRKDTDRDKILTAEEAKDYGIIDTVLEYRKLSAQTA
UniProt Q4DA54, 1-478: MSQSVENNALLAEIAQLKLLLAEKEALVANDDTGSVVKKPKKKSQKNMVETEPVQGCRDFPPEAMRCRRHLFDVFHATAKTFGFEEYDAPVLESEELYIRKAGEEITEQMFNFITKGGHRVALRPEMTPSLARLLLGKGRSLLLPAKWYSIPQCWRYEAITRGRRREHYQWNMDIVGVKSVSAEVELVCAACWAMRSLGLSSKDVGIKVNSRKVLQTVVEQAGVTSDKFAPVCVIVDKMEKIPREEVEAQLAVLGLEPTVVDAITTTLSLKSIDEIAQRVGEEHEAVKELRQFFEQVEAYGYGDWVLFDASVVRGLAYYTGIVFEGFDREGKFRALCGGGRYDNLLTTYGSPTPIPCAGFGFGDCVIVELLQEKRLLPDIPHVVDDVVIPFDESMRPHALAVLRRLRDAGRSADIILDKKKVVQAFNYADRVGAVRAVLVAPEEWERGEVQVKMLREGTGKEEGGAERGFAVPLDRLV

Results are given as percent effect.
How 0% and 100% were set is not recorded. Most values in the screen are low, and negative values occur.
This is an unselected part of the compounds tested.
A dash means the value is not listed here; it may have been measured.

Compound | MtTrpRS | ClpP1P2 | TcHisRS
O=C(NC1CC1)[C@H]1CC[C@@H]2[C@@H](CCN2CCOCc2ccccc2)O1 | -5.805 | 6.188 | 4.124
CC1CCc2n[nH]c(C(=O)NCCc3ccco3)c2C1 (stereo unspecified) | -2.974 | -16.22 | -1.622
CC(C)(C)c1nc(NS(=O)(=O)c2cccc(F)c2)no1 | 2.524 | -3.089 | 3.365
CCN1CCN(S(=O)(=O)c2cc(C)c(Cl)cc2Cl)CC1 | -1.574 | -12.15 | 5.858
COCCC(=O)N1CCC2(CCN(Cc3cccc(F)c3)CC2)CC1 | 1.289 | -10.48 | 7.143
Cc1nc(CN(C)C2CCN(CCc3ccccn3)C2)no1 (stereo unspecified) | 9.029 | -5.652 | 1.425
CN(Cc1cccnc1)C1CC2(CCN(Cc3cccnc3)CC2)C1 | 0.1564 | 2.808 | 9.804
OCc1ccc(CN2CCC(n3cc(-c4ccsc4)nn3)CC2)o1 | -0.854 | -2.811 | 6.186
CCc1cnc(C)nc1NC(C)C(=O)Nc1cc(F)ccc1C (stereo unspecified) | -0.2469 | -6.057 | 11.9
CCCN(C(=O)CNC1CCc2ncnn2C1)C1=CCCCC1 (stereo unspecified) | -0.6938 | -7.174 | 3.704
Cc1noc(C)c1CNC(=O)N1CCC(CN2CCC(C)CC2)CC1 | 1.347 | -8.01 | -1.02
CC(C)(C)n1nnnc1CN(Cc1ccccc1)Cc1ccccc1Cl | -0.2342 | -4.143 | 4.887
CCc1csc(C2CCCN(C(=O)c3ccc4c(c3)OCO4)C2)n1 (stereo unspecified) | 3.298 | -17.57 | -0.8333
Cc1cc(NC(=O)CN2CCCC2Cn2nc(C)nc2C)n(C)n1 (stereo unspecified) | -1.002 | -22.01 | 5.78
CC(C)C(=O)N1CCC(C2C(=O)Nc3ccccc32)CC1 (stereo unspecified) | -5.901 | -1.985 | 5.825
COc1ccccc1-n1c(O)cc(C)c(C#N)c1=O | 2.369 | -8.447 | 7.895
COCCC(=O)Nc1ccnc(Oc2ccccc2)c1 | 1.377 | 1.93 | 0
CCOC(=O)c1coc(N2CCN(C(=O)c3cccc(OC)c3)CC2)n1 | 1.718 | 3.434 | 16.47
CS(=O)(=O)CCCC(=O)Nc1cc(-c2cccc(F)c2F)n[nH]1 | -1.161 | -17.05 | 2.02
O=C(NCCC(O)c1ccoc1)Nc1cccs1 (stereo unspecified) | 4.364 | -0.505 | 8
CC(=O)NC[C@]1(O)CCN(C(=O)c2ccc3c(c2)CCC3)C[C@H]1O | - | -3.566 | 4.396
c1cc(CN2CCO[C@@H]3CNC[C@@H]32)co1 | -0.2116 | -6.856 | 5.882
CN(Cc1ccc(Cl)c(F)c1)C(=O)c1ccncc1F | -2.514 | 4.163 | 0.5618
CC(C)c1nc(C(=O)N2C[C@H](C(C)C)[C@@H](N)C2)cs1 | -0.2649 | -1.923 | 5.422
Cc1nn(CCC(=O)NC(C(=O)O)c2c(C)n[nH]c2C)c(C)c1C (stereo unspecified) | 1.176 | -6.358 | 6.024
CCc1cnc(CNC(=O)N2CCCC(C(=O)NC)C2)s1 (stereo unspecified) | 9.735 | -6.763 | -3.448
Cc1cccnc1N1CCN(C(=O)CCc2cn3ccccc3n2)CC1 | -2.051 | -1.257 | 1.235
CCc1nc(C)ncc1C(=O)N1CCCC(n2nc(C)nc2C)C1 (stereo unspecified) | -3.044 | 8.647 | -2.29
Cc1ccc(C(=O)N(C2CC2)C2CC(=O)NC2=O)cc1F (stereo unspecified) | -1.146 | -9.937 | 7.429
COc1ncccc1C(=O)Nc1cccc(C[S+](C)[O-])c1C (stereo unspecified) | 2.692 | 4.282 | 12.37
CC1(C)CN(CCC(=O)NCc2cccc(Cl)c2)CC[C@]1(C)O | 4.75 | 9.307 | 9.845
CN(C)c1ccc(-c2noc([C@@H]3CCCN3)n2)cn1 | 2.636 | 7.999 | -5.941
Cc1ccc2cc(C(=O)N3CCN(C(=O)c4ccoc4)CC3)[nH]c2c1 | 3.997 | -8.92 | 8.671
CC1c2ncc(Cn3cncn3)n2CCN1C(=O)Cc1cccs1 (stereo unspecified) | -6.587 | 4.399 | 4.598
Cc1nc(CN2CCN(C(=O)c3ccn(C)c(=O)c3)CC2)cs1 | -0.09747 | 10.63 | -0.3759
CC/C=C(/C)C(=O)NS(=O)(=O)c1ccc(C#N)cc1C(F)(F)F | -1.633 | -0.4615 | 5.288
Cn1cc(-c2nnn3c2COC(CNCC2CCOCC2)C3)cn1 (stereo unspecified) | -4.941 | -1.293 | 0.8
COc1ccc(NC(=O)C2OC(c3cccs3)=NN2C(C)=O)cc1OC (stereo unspecified) | - | -6.727 | 11.36
O=C(C1CCCC1)N1CCOc2cccc(F)c21 | 0.4776 | -6.385 | 2.105
CN(Cc1nc(-c2ccoc2)no1)C1CCCN(c2cccnn2)C1 (stereo unspecified) | -4.153 | -15.41 | 0.5764
O=C(Cc1ccsc1)N1CCCC(CNS(=O)(=O)Cc2ccccc2)C1 (stereo unspecified) | -0.6255 | -6.784 | 3.061
CCc1nc(C)c(C(=O)NCCNc2ncccn2)s1 | 2.437 | 8.592 | 3.788
NCCO[C@H]1C[C@@H](O)C12CCN(C(=O)CCOc1ccccc1)CC2 | -2.205 | -12.21 | 4.04
CNC(=O)C1(c2cnccn2)CCCN1C(=O)c1ncccc1C (stereo unspecified) | - | 1.786 | 4.255
Cc1nccn1CCC1CCN(c2ccncn2)CC1 | -5.644 | -18.81 | -0.9662
CS(=O)(=O)N[C@@H]1CN(Cc2ccccc2)C[C@H]1O | -6.914 | -16.89 | 0.8571
CCCNC(=O)c1ccc2c(c1)C(=O)N(CC(C)C)C2=O | -2.399 | -14.01 | 5.833
Cc1noc(C)c1CCC(=O)N1CCCN(C)CC1 | -5.838 | -10.41 | 4.734
c1cnc(-c2nn3c(CN4CCCCC4)nnc3s2)cn1 | 1.295 | 14.47 | 2.609
Cc1ccc(C)c2c(O)cc(CNCc3ccc(S(N)(=O)=O)cc3)nc12 | 3.659 | 4.241 | 11.76
Cn1cnnc1CC1CCN(Cc2c(Cl)cncc2Cl)CC1 | -4.08 | -3.234 | 0

5 of the entries, repeated:

Compound	MtTrpRS	ClpP1P2	TcHisRS
CCCN(C(=O)CNC1CCc2ncnn2C1)C1=CCCCC1 (stereo unspecified)	-0.6938	-7.174	3.704
CCc1nc(C)ncc1C(=O)N1CCCC(n2nc(C)nc2C)C1 (stereo unspecified)	-3.044	8.647	-2.29
Cc1ccc(C)c2c(O)cc(CNCc3ccc(S(N)(=O)=O)cc3)nc12	3.659	4.241	11.76
COc1ccccc1-n1c(O)cc(C)c(C#N)c1=O	2.369	-8.447	7.895
CN(Cc1ccc(Cl)c(F)c1)C(=O)c1ccncc1F	-2.514	4.163	0.5618

Data taken from ChEMBL document CHEMBL3988442, “University of Dundee, Small-Polar-MMV Screening Library” (2021).